Source: the supplement of paper PMC12823440, “Inhibitors supercharge kinase turnover through native proteolytic circuits” (Nature, 2025)
Where a name gives a salt, the structure may show the parent alone. The list shows a part of the results. The calls rarely recur for the same compound in another form.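 In K562 cells expressing nanoluciferase-fused kinases, luminescence was recorded at 4 h intervals between 2 and 18 h, normalized as percent of control with DMSO at 100% and a positive control at 0%. A significant (2 sigma) signal drop marks a time point as decreased. The authors' rule for a hit is not shown and takes in more than the number of time points.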

Sequences of proteins named here, by UniProt entry; tags and fusion partners are left off. A change or cut given only in a name is not applied to a line headed by its entry.
UniProt P21802, whole entry, looked up: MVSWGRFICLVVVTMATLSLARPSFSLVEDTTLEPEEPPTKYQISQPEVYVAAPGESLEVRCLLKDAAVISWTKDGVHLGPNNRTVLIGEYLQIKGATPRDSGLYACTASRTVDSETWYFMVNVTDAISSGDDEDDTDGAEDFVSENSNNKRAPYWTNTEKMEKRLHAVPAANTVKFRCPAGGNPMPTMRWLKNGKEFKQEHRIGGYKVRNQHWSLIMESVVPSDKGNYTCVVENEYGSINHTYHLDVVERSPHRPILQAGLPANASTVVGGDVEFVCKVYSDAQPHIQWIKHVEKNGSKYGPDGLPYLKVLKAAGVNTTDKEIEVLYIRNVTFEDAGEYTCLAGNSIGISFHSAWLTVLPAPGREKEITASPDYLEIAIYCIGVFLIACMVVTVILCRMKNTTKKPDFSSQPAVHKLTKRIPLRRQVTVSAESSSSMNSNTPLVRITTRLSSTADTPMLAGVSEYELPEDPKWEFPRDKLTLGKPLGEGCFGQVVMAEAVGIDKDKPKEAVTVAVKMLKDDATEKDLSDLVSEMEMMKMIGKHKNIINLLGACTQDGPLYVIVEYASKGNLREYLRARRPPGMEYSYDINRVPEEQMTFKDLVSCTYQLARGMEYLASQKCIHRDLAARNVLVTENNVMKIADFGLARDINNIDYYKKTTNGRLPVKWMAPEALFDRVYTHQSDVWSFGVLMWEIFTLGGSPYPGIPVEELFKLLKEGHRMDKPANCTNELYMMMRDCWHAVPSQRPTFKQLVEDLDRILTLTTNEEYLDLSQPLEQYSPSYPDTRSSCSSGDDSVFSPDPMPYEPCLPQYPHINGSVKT
UniProt P22607, whole entry, looked up: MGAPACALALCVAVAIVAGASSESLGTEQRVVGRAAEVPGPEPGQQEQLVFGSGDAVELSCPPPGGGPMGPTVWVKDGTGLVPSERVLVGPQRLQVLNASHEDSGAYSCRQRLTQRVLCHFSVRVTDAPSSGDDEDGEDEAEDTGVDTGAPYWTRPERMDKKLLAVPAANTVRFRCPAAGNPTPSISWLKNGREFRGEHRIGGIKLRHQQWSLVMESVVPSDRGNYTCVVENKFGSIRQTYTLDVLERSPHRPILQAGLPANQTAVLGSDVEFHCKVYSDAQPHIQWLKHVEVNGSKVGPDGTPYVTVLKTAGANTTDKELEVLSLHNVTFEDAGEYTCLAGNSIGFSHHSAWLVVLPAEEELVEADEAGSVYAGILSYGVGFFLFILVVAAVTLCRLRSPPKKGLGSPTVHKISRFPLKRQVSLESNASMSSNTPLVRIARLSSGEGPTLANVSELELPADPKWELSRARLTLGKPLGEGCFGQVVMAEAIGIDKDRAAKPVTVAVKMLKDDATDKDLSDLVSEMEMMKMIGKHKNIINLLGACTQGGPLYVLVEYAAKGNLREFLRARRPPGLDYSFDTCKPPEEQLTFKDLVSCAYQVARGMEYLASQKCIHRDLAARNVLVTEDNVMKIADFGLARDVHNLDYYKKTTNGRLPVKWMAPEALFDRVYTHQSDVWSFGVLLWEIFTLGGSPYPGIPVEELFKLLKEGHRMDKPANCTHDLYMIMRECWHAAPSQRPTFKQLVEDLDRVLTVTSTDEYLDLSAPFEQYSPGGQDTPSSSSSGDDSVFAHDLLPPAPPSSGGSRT
UniProt P36888, whole entry: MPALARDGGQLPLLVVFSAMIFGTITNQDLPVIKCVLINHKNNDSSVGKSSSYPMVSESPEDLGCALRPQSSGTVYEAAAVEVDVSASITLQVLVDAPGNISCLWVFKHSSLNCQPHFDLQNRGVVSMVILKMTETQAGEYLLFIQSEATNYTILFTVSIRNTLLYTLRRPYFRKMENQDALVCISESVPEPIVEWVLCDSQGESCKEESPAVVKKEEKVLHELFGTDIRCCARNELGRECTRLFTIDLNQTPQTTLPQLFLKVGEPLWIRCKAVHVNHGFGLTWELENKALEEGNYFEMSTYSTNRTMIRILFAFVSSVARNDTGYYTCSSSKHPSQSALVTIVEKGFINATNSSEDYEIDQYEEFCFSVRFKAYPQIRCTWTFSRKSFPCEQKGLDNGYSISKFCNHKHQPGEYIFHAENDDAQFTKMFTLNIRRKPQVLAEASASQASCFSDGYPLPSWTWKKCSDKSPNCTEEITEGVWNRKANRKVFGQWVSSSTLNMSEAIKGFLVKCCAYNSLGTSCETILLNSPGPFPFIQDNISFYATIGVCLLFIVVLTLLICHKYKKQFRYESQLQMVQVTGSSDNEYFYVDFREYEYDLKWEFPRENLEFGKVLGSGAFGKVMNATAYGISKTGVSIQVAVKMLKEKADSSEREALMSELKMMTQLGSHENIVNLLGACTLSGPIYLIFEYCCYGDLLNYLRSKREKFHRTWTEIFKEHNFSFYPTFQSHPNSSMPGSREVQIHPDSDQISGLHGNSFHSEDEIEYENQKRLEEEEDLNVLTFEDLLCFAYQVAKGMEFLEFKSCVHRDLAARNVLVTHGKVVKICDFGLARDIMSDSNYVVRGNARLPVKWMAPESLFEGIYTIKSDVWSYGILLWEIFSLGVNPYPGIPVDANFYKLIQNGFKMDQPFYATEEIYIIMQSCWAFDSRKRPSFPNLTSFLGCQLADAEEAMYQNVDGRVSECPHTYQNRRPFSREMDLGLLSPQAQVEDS
UniProt P06241, whole entry, looked up: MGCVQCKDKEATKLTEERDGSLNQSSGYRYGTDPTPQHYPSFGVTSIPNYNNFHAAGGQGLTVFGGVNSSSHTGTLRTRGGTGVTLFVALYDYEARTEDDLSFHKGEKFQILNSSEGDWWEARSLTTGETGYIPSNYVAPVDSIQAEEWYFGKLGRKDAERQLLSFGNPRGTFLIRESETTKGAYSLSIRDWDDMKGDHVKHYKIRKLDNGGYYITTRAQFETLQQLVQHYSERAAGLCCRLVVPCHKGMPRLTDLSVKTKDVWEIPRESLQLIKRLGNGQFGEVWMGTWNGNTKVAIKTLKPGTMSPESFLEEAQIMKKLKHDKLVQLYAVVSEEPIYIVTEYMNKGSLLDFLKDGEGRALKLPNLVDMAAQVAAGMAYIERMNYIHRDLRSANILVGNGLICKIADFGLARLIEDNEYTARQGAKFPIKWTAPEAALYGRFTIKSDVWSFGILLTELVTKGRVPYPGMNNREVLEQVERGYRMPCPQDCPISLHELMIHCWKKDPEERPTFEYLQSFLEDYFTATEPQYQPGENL
UniProt P49840: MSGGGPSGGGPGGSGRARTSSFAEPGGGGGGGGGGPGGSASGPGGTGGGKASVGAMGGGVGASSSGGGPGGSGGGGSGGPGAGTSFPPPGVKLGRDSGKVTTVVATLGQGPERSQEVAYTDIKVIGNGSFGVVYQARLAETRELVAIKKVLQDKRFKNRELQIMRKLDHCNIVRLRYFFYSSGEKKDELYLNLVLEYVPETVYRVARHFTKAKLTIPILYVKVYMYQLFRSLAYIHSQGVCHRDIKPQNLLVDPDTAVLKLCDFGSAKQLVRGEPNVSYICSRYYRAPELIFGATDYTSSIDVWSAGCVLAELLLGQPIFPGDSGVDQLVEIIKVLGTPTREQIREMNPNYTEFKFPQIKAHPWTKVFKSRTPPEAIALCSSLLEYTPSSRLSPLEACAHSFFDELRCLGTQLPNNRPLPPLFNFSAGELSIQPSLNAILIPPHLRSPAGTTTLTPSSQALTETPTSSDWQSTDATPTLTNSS
UniProt Q9Y616: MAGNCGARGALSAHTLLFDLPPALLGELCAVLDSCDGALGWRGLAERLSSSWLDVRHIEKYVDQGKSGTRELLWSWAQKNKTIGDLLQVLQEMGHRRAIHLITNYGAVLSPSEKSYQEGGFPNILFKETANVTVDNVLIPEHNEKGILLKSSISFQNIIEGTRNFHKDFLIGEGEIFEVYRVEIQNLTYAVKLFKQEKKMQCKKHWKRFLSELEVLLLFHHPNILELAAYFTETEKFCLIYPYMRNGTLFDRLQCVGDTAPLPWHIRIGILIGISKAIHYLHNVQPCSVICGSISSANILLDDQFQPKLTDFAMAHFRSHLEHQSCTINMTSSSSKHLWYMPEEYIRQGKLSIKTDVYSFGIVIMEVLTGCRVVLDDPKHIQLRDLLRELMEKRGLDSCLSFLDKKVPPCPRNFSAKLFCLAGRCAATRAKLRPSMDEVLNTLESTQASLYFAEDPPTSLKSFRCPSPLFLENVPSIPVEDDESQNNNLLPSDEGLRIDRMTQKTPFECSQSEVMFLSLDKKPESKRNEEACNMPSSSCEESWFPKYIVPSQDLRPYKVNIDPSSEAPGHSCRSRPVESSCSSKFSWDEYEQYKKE
UniProt P23458: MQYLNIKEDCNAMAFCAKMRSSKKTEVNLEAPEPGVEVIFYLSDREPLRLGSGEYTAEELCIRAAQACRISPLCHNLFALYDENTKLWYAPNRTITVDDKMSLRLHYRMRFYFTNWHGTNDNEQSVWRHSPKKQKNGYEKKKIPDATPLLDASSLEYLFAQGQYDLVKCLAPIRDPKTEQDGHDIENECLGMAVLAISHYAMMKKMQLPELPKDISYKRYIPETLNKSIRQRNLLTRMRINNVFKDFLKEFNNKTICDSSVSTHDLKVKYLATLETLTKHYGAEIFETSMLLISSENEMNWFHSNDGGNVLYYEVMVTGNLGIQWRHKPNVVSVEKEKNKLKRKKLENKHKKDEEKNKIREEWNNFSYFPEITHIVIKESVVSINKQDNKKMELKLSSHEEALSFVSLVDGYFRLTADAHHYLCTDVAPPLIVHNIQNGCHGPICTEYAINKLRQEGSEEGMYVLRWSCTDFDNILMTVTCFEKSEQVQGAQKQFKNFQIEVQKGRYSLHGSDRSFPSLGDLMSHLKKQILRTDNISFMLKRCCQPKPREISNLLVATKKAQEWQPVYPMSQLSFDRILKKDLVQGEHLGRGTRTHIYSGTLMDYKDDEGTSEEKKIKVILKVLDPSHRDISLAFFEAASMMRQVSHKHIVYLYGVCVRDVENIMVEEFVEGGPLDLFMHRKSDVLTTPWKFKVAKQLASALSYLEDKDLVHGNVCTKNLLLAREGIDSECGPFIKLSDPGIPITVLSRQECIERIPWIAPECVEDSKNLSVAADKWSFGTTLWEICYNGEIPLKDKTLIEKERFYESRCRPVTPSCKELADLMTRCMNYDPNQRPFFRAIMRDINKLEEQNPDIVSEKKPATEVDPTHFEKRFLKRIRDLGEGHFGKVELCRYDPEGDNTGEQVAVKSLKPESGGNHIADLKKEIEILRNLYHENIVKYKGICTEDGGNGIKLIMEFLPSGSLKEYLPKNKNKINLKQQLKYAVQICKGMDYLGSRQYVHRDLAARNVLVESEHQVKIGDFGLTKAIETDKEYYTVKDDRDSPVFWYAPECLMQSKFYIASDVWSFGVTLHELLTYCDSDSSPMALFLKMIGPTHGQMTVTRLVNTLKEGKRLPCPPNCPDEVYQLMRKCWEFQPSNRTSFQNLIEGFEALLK
UniProt P06239: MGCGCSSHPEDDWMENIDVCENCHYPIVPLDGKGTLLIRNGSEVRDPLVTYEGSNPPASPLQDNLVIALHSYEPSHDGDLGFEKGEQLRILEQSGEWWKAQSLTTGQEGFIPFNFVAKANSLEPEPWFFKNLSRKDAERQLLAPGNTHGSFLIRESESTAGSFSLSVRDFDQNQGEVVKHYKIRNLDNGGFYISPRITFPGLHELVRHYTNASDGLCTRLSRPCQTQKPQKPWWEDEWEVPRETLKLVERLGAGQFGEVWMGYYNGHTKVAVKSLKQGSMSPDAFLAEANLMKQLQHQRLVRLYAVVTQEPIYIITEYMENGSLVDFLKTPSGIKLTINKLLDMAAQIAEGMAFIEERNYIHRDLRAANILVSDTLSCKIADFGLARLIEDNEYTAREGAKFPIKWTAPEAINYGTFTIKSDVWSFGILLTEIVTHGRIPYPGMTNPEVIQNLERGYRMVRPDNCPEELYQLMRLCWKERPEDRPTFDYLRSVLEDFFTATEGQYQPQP
UniProt P53667: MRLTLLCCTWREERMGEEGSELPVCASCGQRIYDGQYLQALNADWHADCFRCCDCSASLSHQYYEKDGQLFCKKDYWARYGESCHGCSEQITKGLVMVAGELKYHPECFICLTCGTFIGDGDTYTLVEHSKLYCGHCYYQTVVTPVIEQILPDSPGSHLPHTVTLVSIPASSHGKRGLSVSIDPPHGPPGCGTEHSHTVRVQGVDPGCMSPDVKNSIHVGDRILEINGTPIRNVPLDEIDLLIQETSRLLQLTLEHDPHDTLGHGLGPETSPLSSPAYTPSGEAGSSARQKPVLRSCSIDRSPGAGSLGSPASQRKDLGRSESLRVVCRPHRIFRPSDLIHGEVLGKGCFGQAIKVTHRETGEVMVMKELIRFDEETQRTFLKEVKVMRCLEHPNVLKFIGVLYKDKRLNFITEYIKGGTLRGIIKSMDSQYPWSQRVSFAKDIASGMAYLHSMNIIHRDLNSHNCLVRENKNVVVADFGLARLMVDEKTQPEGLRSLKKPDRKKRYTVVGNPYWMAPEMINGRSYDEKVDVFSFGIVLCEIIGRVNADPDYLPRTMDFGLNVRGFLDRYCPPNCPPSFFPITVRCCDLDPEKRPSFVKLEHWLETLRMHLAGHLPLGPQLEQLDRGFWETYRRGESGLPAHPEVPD

Assays:
Test in all cases: number of time points (of 5) at which kinase-Nluc abundance scored as decreased, DMSO-normalised (count); higher = more persistent destabilization
Details in all cases: K562; 2-18 h
EGFR_L861Q = EGFR_L861Q (UniProt P00533)
EGFR_T790M = EGFR_T790M (UniProt P00533)
EPHA2 = EPHA2 (UniProt P29317)
ERBB3 = ERBB3 (UniProt P21860)
[1] = target: ERBB4_R711C (clone: ERBB4_mut) (UniProt Q15303)
ERN1 = ERN1 (UniProt O75460)
FGFR1 = FGFR1 (UniProt P11362)
FGFR2 = FGFR2 (UniProt P21802)
FGFR3 = FGFR3 (UniProt P22607)
FGR = FGR (UniProt P09769)
FLT3 = FLT3 (UniProt P36888)
FYN = FYN (UniProt P06241)
GSK3A = GSK3A (UniProt P49840)
HER2 = HER2 (UniProt P04626)
INSRR = INSRR (UniProt P14616)
IRAK3 = IRAK3 (UniProt Q9Y616)
JAK1 = JAK1 (UniProt P23458)
LCK = LCK (UniProt P06239)
LIMK1 = LIMK1 (UniProt P53667)
LIMK2 = LIMK2 (UniProt P53671)

| Compound | number of time points (EGFR_L861Q) | number of time points (EGFR_T790M) | number of time points (EPHA2) | number of time points (ERBB3) | number of time points [1] | number of time points (ERN1) | number of time points (FGFR1) | number of time points (FGFR2) | number of time points (FGFR3) | number of time points (FGR) | number of time points (FLT3) | number of time points (FYN) | number of time points (GSK3A) | number of time points (HER2) | number of time points (INSRR) | number of time points (IRAK3) | number of time points (JAK1) | number of time points (LCK) | number of time points (LIMK1) | number of time points (LIMK2) |
| --- | --- | --- | --- | --- | --- | --- | --- | --- | --- | --- | --- | --- | --- | --- | --- | --- | --- | --- | --- | --- |
| O=Nc1c(-c2c(O)[nH]c3ccc(I)cc23)[nH]c2ccccc12 [5-Iodo-indirubin-3'-monoxime] (10 µM) | 0 | 0 | 0 | 0 | 0 | 0 | 0 | 0 | 0 | 0 | 0 | 0 | 2 | 0 | 0 | 0 | 0 | 0 | 0 | 0 |
| Cn1nccc1Nc1nccc(-c2ccn([C@H](CO)c3ccc(Cl)c(F)c3)c(=O)c2)n1 [Ravoxertinib hydrochloride] (10 µM) | 0 | 0 | 0 | 0 | 0 | 0 | 0 | 0 | 0 | 0 | 0 | 0 | 0 | 0 | 0 | 0 | 0 | 0 | 0 | 0 |
| Cn1cc(-c2ccc3nnc(Sc4ccc5ncccc5c4)n3n2)cn1 (10 µM) | 0 | 0 | 0 | 0 | 0 | 0 | 0 | 0 | 0 | 0 | 0 | 0 | 0 | 0 | 0 | 0 | 0 | 0 | 0 | 0 |
| COc1cc2ncc(-c3ccccc3)nc2cc1OC [Tyrphostin AG1296] (10 µM) | 0 | 0 | 0 | 0 | 0 | 0 | 0 | 0 | 0 | 0 | 0 | 0 | 0 | 0 | 0 | 0 | 0 | 0 | 0 | 0 |
| CCc1cc2c(cc1N1CCC(N3CCOCC3)CC1)C(C)(C)c1[nH]c3cc(C#N)ccc3c1C2=O [Alectinib] (10 µM) | 0 | 0 | 0 | 0 | 0 | 0 | 0 | 0 | 0 | 0 | 0 | 0 | 0 | 0 | 0 | 0 | 0 | 0 | 0 | 0 |
| C=C(CC[C@@H](C(=O)O)[C@H]1[C@H](O)C[C@@]2(C)C3=C(CC[C@]12C)[C@@]1(C)CC[C@H](OC(C)=O)C(C)(C)[C@@H]1CC3)C(C)C [Pachymic acid] (10 µM) | 0 | 0 | 0 | 0 | 0 | 0 | 0 | 0 | 0 | 0 | 0 | 0 | 0 | 0 | 0 | 0 | 0 | 0 | 0 | 0 |
| Cc1nc(-c2cn3c(n2)-c2ccc(-c4cnn(C(C)(C)C(N)=O)c4)cc2OCC3)n(C(C)C)n1 [Taselisib] (10 µM) | 0 | 0 | 0 | 0 | 0 | 0 | 0 | 0 | 0 | 0 | 0 | 0 | 0 | 0 | 0 | 0 | 0 | 0 | 1 | 0 |
| C=CC(=O)Nc1cccc(Nc2nc(Nc3ccc(N4CCN(C(C)=O)CC4)cc3OC)ncc2C(F)(F)F)c1 [Rociletinib hydrobromide] (10 µM) | 0 | 0 | 0 | 0 | 4 | 0 | 0 | 0 | 0 | 0 | 0 | 0 | 0 | 4 | 0 | 0 | 0 | 0 | 0 | 0 |
| C[C@H](c1ccnc(Nc2nc3ccc(-c4cc(N(C)C)ncn4)cc3[nH]2)c1)N1CCN(C(=O)CC(F)(F)F)CC1 (2.5 µM) | 0 | 0 | 0 | 0 | 0 | 0 | 0 | 0 | 0 | 0 | 0 | 0 | 0 | 0 | 0 | 0 | 0 | 0 | 0 | 0 |
| COc1ccccc1-c1cc(Nc2cccc(CS(N)(=O)=O)c2)ncn1 (10 µM) | 1 | 0 | 0 | 2 | 3 | 0 | 0 | 2 | 0 | 0 | 3 | 0 | 0 | 0 | 4 | 3 | 3 | 0 | 0 | 0 |
| C[C@@H](c1ccc(-c2ccccc2)c(F)c1)c1cc(NC(=N)N2CCOCC2)on1 [Rimacalib] (10 µM) | 0 | 0 | 0 | 0 | 0 | 0 | 0 | 0 | 0 | 0 | 0 | 0 | 0 | 0 | 0 | 0 | 0 | 0 | 0 | 0 |
| CNC(=O)c1ccc(C)c(-n2c(C)cc(OCc3ccc(F)cc3F)c(Br)c2=O)c1 (10 µM) | 0 | 0 | 0 | 0 | 0 | 0 | 0 | 0 | 0 | 0 | 0 | 0 | 0 | 0 | 0 | 0 | 0 | 0 | 0 | 0 |
